Assay results as given in patent publication US11865116B2, “Treatment of cancer with TG02” (Cothera Bioscience, Inc., priority 2016, dated 2024).
At least one compound was matched to its structure with a doubt left.

Tests used:
human astrocytes = assay: Cell viability by cell counting in normal cells; type: cell-based; details: 50 nM of TG02, 100 μM of TMZ, or TG02+TMZ for 72 hr, then normal medium another 7 days; FIG. 11
Protocol: (§1) Pulmonary arterial endothelial cells and human astrocytes were tested with 50 nM of TG02, 100 μM of TMZ, or TG02+TMZ for 72 hr. The cells were then changed to normal medium and cultured for another 7 days. Cell viability was determined by cell counting.

[1] = test system: human pulmonary arterial endothelial cells; assay: Cell viability by cell counting in normal cells; type: cell-based; details: 50 nM of TG02, 100 μM of TMZ, or TG02+TMZ for 72 hr, then normal medium another 7 days; FIG. 10
Protocol: as §1

## Cn1nnc2c(C(N)=O)ncn2c1=O [TMZ, temozolomide, reference compound]
Human astrocytes
  in vitro activity (cell viability): lack of in vitro activity
[1]
  in vitro activity (cell viability): lack of in vitro activity
